The source of these data is article PMC10279700, “Structural insights into regulation of the PEAK3 pseudokinase scaffold by 14-3-3” (Nature Communications, 2023).

Chains of the proteins cited; added tags and fusions are not shown.
UniProt P63104: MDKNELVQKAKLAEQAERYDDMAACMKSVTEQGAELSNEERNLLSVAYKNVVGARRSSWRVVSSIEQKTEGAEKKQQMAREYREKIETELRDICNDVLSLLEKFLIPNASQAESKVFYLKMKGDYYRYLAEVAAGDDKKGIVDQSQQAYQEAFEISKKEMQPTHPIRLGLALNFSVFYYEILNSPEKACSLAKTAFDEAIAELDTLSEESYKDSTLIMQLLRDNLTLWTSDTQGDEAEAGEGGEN
UniProt P46109: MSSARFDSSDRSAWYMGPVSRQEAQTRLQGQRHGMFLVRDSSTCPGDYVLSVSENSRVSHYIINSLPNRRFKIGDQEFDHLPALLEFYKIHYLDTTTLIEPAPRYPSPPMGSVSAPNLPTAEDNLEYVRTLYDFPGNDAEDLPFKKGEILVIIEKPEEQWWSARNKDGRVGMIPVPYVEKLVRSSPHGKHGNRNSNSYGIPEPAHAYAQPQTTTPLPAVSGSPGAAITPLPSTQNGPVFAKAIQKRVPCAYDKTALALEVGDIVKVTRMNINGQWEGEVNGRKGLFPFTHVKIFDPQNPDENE
UniProt P30153: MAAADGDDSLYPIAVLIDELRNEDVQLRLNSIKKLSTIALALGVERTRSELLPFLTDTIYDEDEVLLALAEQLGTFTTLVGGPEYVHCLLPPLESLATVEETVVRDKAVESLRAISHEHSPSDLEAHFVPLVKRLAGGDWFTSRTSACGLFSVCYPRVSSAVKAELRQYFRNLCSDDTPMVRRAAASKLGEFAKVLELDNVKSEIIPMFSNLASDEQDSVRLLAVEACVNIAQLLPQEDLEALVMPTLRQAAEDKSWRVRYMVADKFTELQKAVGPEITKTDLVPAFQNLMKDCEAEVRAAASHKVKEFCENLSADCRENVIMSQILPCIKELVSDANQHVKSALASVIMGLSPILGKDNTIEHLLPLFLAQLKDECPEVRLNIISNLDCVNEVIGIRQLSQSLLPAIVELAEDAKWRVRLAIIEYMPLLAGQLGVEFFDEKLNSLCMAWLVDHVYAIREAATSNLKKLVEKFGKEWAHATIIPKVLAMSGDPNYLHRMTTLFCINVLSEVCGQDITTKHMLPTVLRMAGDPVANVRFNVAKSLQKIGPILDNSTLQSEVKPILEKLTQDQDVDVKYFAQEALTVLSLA
UniProt P63151: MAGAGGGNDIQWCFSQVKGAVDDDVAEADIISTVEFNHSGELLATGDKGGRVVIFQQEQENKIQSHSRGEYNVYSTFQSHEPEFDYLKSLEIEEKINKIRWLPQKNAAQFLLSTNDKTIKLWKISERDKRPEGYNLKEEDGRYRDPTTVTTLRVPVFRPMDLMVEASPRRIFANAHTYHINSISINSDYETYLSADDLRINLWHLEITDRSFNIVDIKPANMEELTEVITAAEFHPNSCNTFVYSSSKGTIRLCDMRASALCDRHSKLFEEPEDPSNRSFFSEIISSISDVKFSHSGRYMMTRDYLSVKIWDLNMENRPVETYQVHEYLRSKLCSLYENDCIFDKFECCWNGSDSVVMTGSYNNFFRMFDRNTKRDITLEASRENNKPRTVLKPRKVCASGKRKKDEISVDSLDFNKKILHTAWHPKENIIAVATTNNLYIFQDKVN

Results are given in words; binding and its absence hold for the method and conditions named. Binding seen in cells or lysates may run through a third protein. A yes stands for co-enrichment or nearness to the bait. Other partners may have been found. For part of these data: A no says only that the protein was not detected with the bait. For part of these data: Tags and fused reporters may be left off the sequences shown.

Experiment [1] deals with FLAG-tagged full-length human PEAK3 (PEAK3-1xFLAG) (human) (UniProt Q6ZS72). The experiment is described as follows: affinity purification with mass spectrometry; PEAK3-1xFLAG purified from Expi293F on Flag resin and Superdex 200; 5 ug of the purified complex digested with trypsin and analysed by MS.
Experiment [2] addresses T1, FLAG-tagged PEAK3 S69A (human) (UniProt Q6ZS72).
T1 sequence: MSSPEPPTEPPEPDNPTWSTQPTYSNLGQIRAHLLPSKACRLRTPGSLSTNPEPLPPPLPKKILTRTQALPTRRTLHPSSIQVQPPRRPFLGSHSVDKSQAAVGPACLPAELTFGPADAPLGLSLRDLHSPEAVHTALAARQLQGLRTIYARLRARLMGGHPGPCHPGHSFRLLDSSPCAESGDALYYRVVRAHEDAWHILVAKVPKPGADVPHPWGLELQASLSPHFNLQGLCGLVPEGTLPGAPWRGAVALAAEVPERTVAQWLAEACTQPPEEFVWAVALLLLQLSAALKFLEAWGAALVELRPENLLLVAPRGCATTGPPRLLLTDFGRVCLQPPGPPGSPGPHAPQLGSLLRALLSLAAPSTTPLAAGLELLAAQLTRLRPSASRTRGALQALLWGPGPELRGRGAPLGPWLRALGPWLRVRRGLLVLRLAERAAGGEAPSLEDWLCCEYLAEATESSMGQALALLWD
The experiment in a line: affinity purification with mass spectrometry; WT or S69A PEAK3-3xFLAG transiently expressed in HEK293; anti-FLAG M2 magnetic beads, 3 h at 4 °C, 3xFLAG peptide elution; SAINTexpress BFDR < 0.05 against non-transfected cells.

For experiment [3], the target named is FLAG-tagged WT PEAK3 (human) (UniProt Q6ZS72). The description is as above.

14-3-3ζ (from UniProt P63104 1-245): the binding result in experiment [1] was “binds”. Consider CrkL (from UniProt P46109 1-303), for which the binding result in experiment [2] is “binds”. For the molecule PPP2R1A (from UniProt P30153 1-589), the binding result is “binds” in experiment [2] and “no binding” in experiment [3]. The like results for PPP2R2A (from UniProt P63151 1-447) were, in that order, “binds” and “no binding”.

B1: 14-3-3γ (protein, UniProt P61981 1-247)
chain: MVDREQLVQKARLAEQAERYDDMAAAMKNVTELNEPLSNEERNLLSVAYKNVVGARRSSWRVISSIEQKTSADGNEKKIEMVRAYREKIEKELEAVCQDVLSLLDNYLIKNCSETQYESKVFYLKMKGDYYRYLAEVATGEKRATVVESSEKAYSEAHEISKEHMQPTHPIRLGLALNYSVFYYEIQNAPEQACHLAKTAFDDAIAELDTLNEDSYKDSTLIMQLLRDNLTLWTSDQQDDDGGEGNN
With B1, the binding result in experiment [1] is “binds”.

B2: protein kinase D1 (PKD1) (enzyme, UniProt Q15139 1-912)
chain: MSAPPVLRPPSPLLPVAAAAAAAAAALVPGSGPGPAPFLAPVAAPVGGISFHLQIGLSREPVLLLQDSSGDYSLAHVREMACSIVDQKFPECGFYGMYDKILLFRHDPTSENILQLVKAASDIQEGDLIEVVLSASATFEDFQIRPHALFVHSYRAPAFCDHCGEMLWGLVRQGLKCEGCGLNYHKRCAFKIPNNCSGVRRRRLSNVSLTGVSTIRTSSAELSTSAPDEPLLQKSPSESFIGREKRSNSQSYIGRPIHLDKILMSKVKVPHTFVIHSYTRPTVCQYCKKLLKGLFRQGLQCKDCRFNCHKRCAPKVPNNCLGEVTINGDLLSPGAESDVVMEEGSDDNDSERNSGLMDDMEEAMVQDAEMAMAECQNDSGEMQDPDPDHEDANRTISPSTSNNIPLMRVVQSVKHTKRKSSTVMKEGWMVHYTSKDTLRKRHYWRLDSKCITLFQNDTGSRYYKEIPLSEILSLEPVKTSALIPNGANPHCFEITTANVVYYVGENVVNPSSPSPNNSVLTSGVGADVARMWEIAIQHALMPVIPKGSSVGTGTNLHRDISVSISVSNCQIQENVDISTVYQIFPDEVLGSGQFGIVYGGKHRKTGRDVAIKIIDKLRFPTKQESQLRNEVAILQNLHHPGVVNLECMFETPERVFVVMEKLHGDMLEMILSSEKGRLPEHITKFLITQILVALRHLHFKNIVHCDLKPENVLLASADPFPQVKLCDFGFARIIGEKSFRRSVVGTPAYLAPEVLRNKGYNRSLDMWSVGVIIYVSLSGTFPFNEDEDIHDQIQNAAFMYPPNPWKEISHEAIDLINNLLQVKMRKRYSVDKTLSHPWLQDYQTWLDLRELECKIGERYITHESDDLRWEKYAGEQGLQYPTHLINPSASHSDTPETEETEMKALGERVSIL
Regarding B2, the binding result in experiment [2] is recorded as “binds”.

B3: protein kinase D3 (PKD3) (enzyme, UniProt O94806 1-890)
chain: MSANNSPPSAQKSVLPTAIPAVLPAASPCSSPKTGLSARLSNGSFSAPSLTNSRGSVHTVSFLLQIGLTRESVTIEAQELSLSAVKDLVCSIVYQKFPECGFFGMYDKILLFRHDMNSENILQLITSADEIHEGDLVEVVLSALATVEDFQIRPHTLYVHSYKAPTFCDYCGEMLWGLVRQGLKCEGCGLNYHKRCAFKIPNNCSGVRKRRLSNVSLPGPGLSVPRPLQPEYVALPSEESHVHQEPSKRIPSWSGRPIWMEKMVMCRVKVPHTFAVHSYTRPTICQYCKRLLKGLFRQGMQCKDCKFNCHKRCASKVPRDCLGEVTFNGEPSSLGTDTDIPMDIDNNDINSDSSRGLDDTEEPSPPEDKMFFLDPSDLDVERDEEAVKTISPSTSNNIPLMRVVQSIKHTKRKSSTMVKEGWMVHYTSRDNLRKRHYWRLDSKCLTLFQNESGSKYYKEIPLSEILRISSPRDFTNISQGSNPHCFEIITDTMVYFVGENNGDSSHNPVLAATGVGLDVAQSWEKAIRQALMPVTPQASVCTSPGQGKDHKDLSTSISVSNCQIQENVDISTVYQIFADEVLGSGQFGIVYGGKHRKTGRDVAIKVIDKMRFPTKQESQLRNEVAILQNLHHPGIVNLECMFETPERVFVVMEKLHGDMLEMILSSEKSRLPERITKFMVTQILVALRNLHFKNIVHCDLKPENVLLASAEPFPQVKLCDFGFARIIGEKSFRRSVVGTPAYLAPEVLRSKGYNRSLDMWSVGVIIYVSLSGTFPFNEDEDINDQIQNAAFMYPPNPWREISGEAIDLINNLLQVKMRKRYSVDKSLSHPWLQDYQTWLDLREFETRIGERYITHESDDARWEIHAYTHNLVYPKHFIMAPNPDDMEEDP
Take B3: the binding entry in experiment [2] is “binds”.

B4: 14-3-3θ (protein, UniProt P27348 1-245)
chain: MEKTELIQKAKLAEQAERYDDMATCMKAVTEQGAELSNEERNLLSVAYKNVVGGRRSAWRVISSIEQKTDTSDKKLQLIKDYREKVESELRSICTTVLELLDKYLIANATNPESKVFYLKMKGDYFRYLAEVACGDDRKQTIDNSQGAYQEAFDISKKEMQPTHPIRLGLALNFSVFYYEILNNPELACTLAKTAFDEAIAELDTLNEDSYKDSTLIMQLLRDNLTLWTSDSAGEECDAAEGAEN
Take B4: the binding result in experiment [1] is “binds”.

B5: protein kinase D2 (PKD2) (enzyme, UniProt Q9BZL6 1-878)
chain: MATAPSYPAGLPGSPGPGSPPPPGGLELQSPPPLLPQIPAPGSGVSFHIQIGLTREFVLLPAASELAHVKQLACSIVDQKFPECGFYGLYDKILLFKHDPTSANLLQLVRSSGDIQEGDLVEVVLSASATFEDFQIRPHALTVHSYRAPAFCDHCGEMLFGLVRQGLKCDGCGLNYHKRCAFSIPNNCSGARKRRLSSTSLASGHSVRLGTSESLPCTAEELSRSTTELLPRRPPSSSSSSSASSYTGRPIELDKMLLSKVKVPHTFLIHSYTRPTVCQACKKLLKGLFRQGLQCKDCKFNCHKRCATRVPNDCLGEALINGDVPMEEATDFSEADKSALMDESEDSGVIPGSHSENALHASEEEEGEGGKAQSSLGYIPLMRVVQSVRHTTRKSSTTLREGWVVHYSNKDTLRKRHYWRLDCKCITLFQNNTTNRYYKEIPLSEILTVESAQNFSLVPPGTNPHCFEIVTANATYFVGEMPGGTPGGPSGQGAEAARGWETAIRQALMPVILQDAPSAPGHAPHRQASLSISVSNSQIQENVDIATVYQIFPDEVLGSGQFGVVYGGKHRKTGRDVAVKVIDKLRFPTKQESQLRNEVAILQSLRHPGIVNLECMFETPEKVFVVMEKLHGDMLEMILSSEKGRLPERLTKFLITQILVALRHLHFKNIVHCDLKPENVLLASADPFPQVKLCDFGFARIIGEKSFRRSVVGTPAYLAPEVLLNQGYNRSLDMWSVGVIMYVSLSGTFPFNEDEDINDQIQNAAFMYPASPWSHISAGAIDLINNLLQVKMRKRYSVDKSLSHPWLQEYQTWLDLRELEGKMGERYITHESDDARWEQFAAEHPLPGSGLPTDRDLGGACPPQDHDMQGLAERISVL
On to B5, for which the binding entry in experiment [2] is on record as “binds”.

B6: 14-3-3η (protein, UniProt Q04917 1-246)
chain: MGDREQLLQRARLAEQAERYDDMASAMKAVTELNEPLSNEDRNLLSVAYKNVVGARRSSWRVISSIEQKTMADGNEKKLEKVKAYREKIEKELETVCNDVLSLLDKFLIKNCNDFQYESKVFYLKMKGDYYRYLAEVASGEKKNSVVEASEAAYKEAFEISKEQMQPTHPIRLGLALNFSVFYYEIQNAPEQACLLAKQAFDDAIAELDTLNEDSYKDSTLIMQLLRDNLTLWTSDQQDEEAGEGN
For the molecule B6, the binding entry in experiment [1] is on record as “binds”.
